# Results from the supplement of paper PMC8728848.
# The list shows a part of the results.
# How the values were obtained:
# Assay in all cases: glycan array binding signal (z-score within array); higher = stronger binding
# Settings in all cases: glycan notation: IUPAC condensed, linker removed
# [1] = target: Gal(a1-3)Gal(b1-4)GlcNAc(b1-2)Man
# Outline: (§1)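 Glycan array binding is given as a within-array Z-score, which can be read as non-binding when negative. The arrays, 3228 of them, came from the Consortium for Functional Glycomics database and were retained only where the protein sequence was available. Z-scores were averaged across arrays of the same protein sequence at different concentrations or buffers and across linkers.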
# [2] = target: Gal(a1-3)Gal(b1-4)GlcNAc(b1-2)Man(a1-3)[Gal(a1-3)Gal(b1-4)GlcNAc(b1-2)Man(a1-6)]Man(b1-4)GlcNAc(b1-4)GlcNAc
# Outline: as §1
# [3] = target: Gal(a1-3)Gal(b1-4)GlcNAc(b1-3)GalNAc
# Outline: as §1
# [4] = target: Gal(a1-3)Gal(b1-4)GlcNAc(b1-6)GalNAc
# Outline: as §1
# [5] = target: Gal(a1-3)Gal(b1-4)[Fuc(a1-3)]GlcNAc
# Outline: as §1
# [6] = target: Gal(a1-3)Gal(b1-4)[Fuc(a1-3)]GlcNAc(b1-2)Man(a1-3)[Gal(a1-3)Gal(b1-4)[Fuc(a1-3)]GlcNAc(b1-2)Man(a1-6)]Man(b1-4)GlcNAc(b1-4)GlcNAc
# Outline: as §1
# Gal(a1-3)GalNAc = target: Gal(a1-3)GalNAc
# Outline: as §1
# [7] = target: Gal(a1-3)[Gal(a1-4)]Gal(b1-4)GlcNAc
# Outline: as §1
# [8] = target: Gal(a1-4)Gal(b1-3)GlcNAc(b1-2)Man(a1-3)[Gal(a1-4)Gal(b1-3)GlcNAc(b1-2)Man(a1-6)]Man(b1-4)GlcNAc(b1-4)GlcNAc
# Outline: as §1
# Gal(a1-4)Gal(b1-4)Glc = target: Gal(a1-4)Gal(b1-4)Glc
# Outline: as §1
# Gal(a1-4)Gal(b1-4)GlcNAc = target: Gal(a1-4)Gal(b1-4)GlcNAc
# Outline: as §1
# [9] = target: Gal(a1-4)Gal(b1-4)GlcNAc(b1-2)Man(a1-3)[Gal(a1-4)Gal(b1-4)GlcNAc(b1-2)Man(a1-6)]Man(b1-4)GlcNAc(b1-4)GlcNAc
# Outline: as §1
# [10] = target: Gal(a1-4)Gal(b1-4)GlcNAc(b1-3)Gal(b1-4)Glc
# Outline: as §1
# Gal(a1-4)GlcNAc = target: Gal(a1-4)GlcNAc
# Outline: as §1
# Gal(a1-6)Glc = target: Gal(a1-6)Glc
# Outline: as §1
# Gal(b1-2)Gal = target: Gal(b1-2)Gal
# Outline: as §1
# Gal(b1-3)Gal = target: Gal(b1-3)Gal
# Outline: as §1
# Gal(b1-3)Gal(b1-4)GlcNAc = target: Gal(b1-3)Gal(b1-4)GlcNAc
# Outline: as §1
# Gal(b1-3)GalNAc = target: Gal(b1-3)GalNAc
# Outline: as §1
# [11] = target: Gal(b1-3)GalNAc(a1-3)[Fuc(a1-2)]Gal(b1-4)Glc
# Outline: as §1
# [12] = target: Gal(b1-3)GalNAc(a1-3)[Fuc(a1-2)]Gal(b1-4)GlcNAc
# Outline: as §1
# Gal(b1-3)GalNAc(b1-3)Gal = target: Gal(b1-3)GalNAc(b1-3)Gal
# Outline: as §1
# [13] = target: Gal(b1-3)GalNAc(b1-3)Gal(a1-4)Gal(b1-4)Glc
# Outline: as §1
# [14] = target: Gal(b1-3)GalNAc(b1-4)Gal(b1-4)Glc
# Outline: as §1
# [15] = target: Gal(b1-3)GalNAc(b1-4)[Neu5Ac(a2-3)]Gal(b1-4)Glc
# Outline: as §1
# Gal(b1-3)GlcNAc = target: Gal(b1-3)GlcNAc
# Outline: as §1
# [16] = target: Gal(b1-3)GlcNAc(a1-3)Gal(b1-4)GlcNAc
# Outline: as §1
# [17] = target: Gal(b1-3)GlcNAc(a1-6)Gal(b1-4)GlcNAc
# Outline: as §1
# Gal(b1-3)GlcNAc(b1-2)Man = target: Gal(b1-3)GlcNAc(b1-2)Man
# Outline: as §1
# [18] = target: Gal(b1-3)GlcNAc(b1-2)Man(a1-3)[Gal(b1-3)GlcNAc(b1-2)Man(a1-6)]Man(b1-4)GlcNAc(b1-4)GlcNAc
# Outline: as §1
binder,measurement,setting,value
Awp1 (Candida glabrata) (protein) MSLITIFAFLIKATLVLSLDILTPTTLTGDQTFNEDVSVVSSLTLNDGSQYLFNNLLQIAPSSASVTANALAAVSVFTFSLPPSSSLSNSGTLIISNSNTGPSTEQHIVITPNVMANTGTITLSLAHTNTDSSSTLIIDPVTFYNTGTINYESIGSETNDPSLTGNILSIGSSGRTLQNLGTINLNAANSYYLLGTITENSGSINVQKGFLYVNALDFIGNTINLSTTTALAFISPVSQVVRVRGVFFGNIIASVGSSGTFSYNTQTGILTVTTNGVYSYDIGCGYNPALMSGQQETLSFQGNPYDTFLVLVNQPIPSDLTCAAVSSSITPSSSVEPSSSVVPSSSVEPSSSVEPSSSVEPSSSVEPSSSVEPSSSVEPSSSVEPSSSVEPSSSVEPSSSVEPSSSVEPSSSVEPSSSVEPSSSVEPSSSVEPSSSVEPSSSVEPSSSVEPSSSVEPSSLIVPSSSVEPSSSVLPSSSVVPSSSVEPSTPPIPSSSVEPSSSVVPSSPAVPSSSVEPSTPPIPSSSVVSASVFDTSSTLPSSPSVPPSSVSPSTISTPSSSAAPSSFCPTCVSSGTPPAPSSSAIVPTSSAGGGNGGDNREPGAAGQPGAAGQPGAAGQPGAAGQPGAAGQPGAAGQPGAAGQPGAAGQPGAAGQPGAAGQPGAGFGVGSEQPTPGAGAGSGSADGNQSGTGSGTGNGQQGSGQAGSGQAGSGQEGSGQAGSGQAGSGQAGSGQAGSGQAGLDNTASGQSEGGQASAMDGDQSGRDGQSNSGSLLQPNAQQGTGSGTGSDIGADQASGESPGQIGDAQPGSGTDQSSGRHSLAAEARTSQSHSLAADARTRSTTRQTSVIAPDTAPGTASGTAPGTAPGTAVVTTFHGCGTVNHKGMINILLALALLVLL,glycan array binding signal (z-score),[1],-0.277
same,glycan array binding signal (z-score),[2],0.087
same,glycan array binding signal (z-score),[3],0.368
same,glycan array binding signal (z-score),[4],0.573
same,glycan array binding signal (z-score),[5],0.717
same,glycan array binding signal (z-score),[6],0.15
same,glycan array binding signal (z-score),Gal(a1-3)GalNAc,-0.832
same,glycan array binding signal (z-score),[7],0.211
same,glycan array binding signal (z-score),[8],-0.58
same,glycan array binding signal (z-score),Gal(a1-4)Gal(b1-4)Glc,2.6
same,glycan array binding signal (z-score),Gal(a1-4)Gal(b1-4)GlcNAc,1.02
same,glycan array binding signal (z-score),[9],1.64
same,glycan array binding signal (z-score),[10],0.176
same,glycan array binding signal (z-score),Gal(a1-4)GlcNAc,-2.03
same,glycan array binding signal (z-score),Gal(a1-6)Glc,0.381
same,glycan array binding signal (z-score),Gal(b1-2)Gal,-1.15
same,glycan array binding signal (z-score),Gal(b1-3)Gal,-0.227
same,glycan array binding signal (z-score),Gal(b1-3)Gal(b1-4)GlcNAc,0.709
same,glycan array binding signal (z-score),Gal(b1-3)GalNAc,1.08
same,glycan array binding signal (z-score),[11],3.43
same,glycan array binding signal (z-score),[12],-0.352
same,glycan array binding signal (z-score),Gal(b1-3)GalNAc(b1-3)Gal,-0.493
same,glycan array binding signal (z-score),[13],1.18
same,glycan array binding signal (z-score),[14],0.327
same,glycan array binding signal (z-score),[15],-0.686
same,glycan array binding signal (z-score),Gal(b1-3)GlcNAc,0.587
same,glycan array binding signal (z-score),[16],0.742
same,glycan array binding signal (z-score),[17],-0.788
same,glycan array binding signal (z-score),Gal(b1-3)GlcNAc(b1-2)Man,-1.17
same,glycan array binding signal (z-score),[18],0.766

# Random excerpt: 2 entries already listed
binder,measurement,setting,value
Awp1 (Candida glabrata) (protein) MSLITIFAFLIKATLVLSLDILTPTTLTGDQTFNEDVSVVSSLTLNDGSQYLFNNLLQIAPSSASVTANALAAVSVFTFSLPPSSSLSNSGTLIISNSNTGPSTEQHIVITPNVMANTGTITLSLAHTNTDSSSTLIIDPVTFYNTGTINYESIGSETNDPSLTGNILSIGSSGRTLQNLGTINLNAANSYYLLGTITENSGSINVQKGFLYVNALDFIGNTINLSTTTALAFISPVSQVVRVRGVFFGNIIASVGSSGTFSYNTQTGILTVTTNGVYSYDIGCGYNPALMSGQQETLSFQGNPYDTFLVLVNQPIPSDLTCAAVSSSITPSSSVEPSSSVVPSSSVEPSSSVEPSSSVEPSSSVEPSSSVEPSSSVEPSSSVEPSSSVEPSSSVEPSSSVEPSSSVEPSSSVEPSSSVEPSSSVEPSSSVEPSSSVEPSSSVEPSSSVEPSSSVEPSSLIVPSSSVEPSSSVLPSSSVVPSSSVEPSTPPIPSSSVEPSSSVVPSSPAVPSSSVEPSTPPIPSSSVVSASVFDTSSTLPSSPSVPPSSVSPSTISTPSSSAAPSSFCPTCVSSGTPPAPSSSAIVPTSSAGGGNGGDNREPGAAGQPGAAGQPGAAGQPGAAGQPGAAGQPGAAGQPGAAGQPGAAGQPGAAGQPGAAGQPGAGFGVGSEQPTPGAGAGSGSADGNQSGTGSGTGNGQQGSGQAGSGQAGSGQEGSGQAGSGQAGSGQAGSGQAGSGQAGLDNTASGQSEGGQASAMDGDQSGRDGQSNSGSLLQPNAQQGTGSGTGSDIGADQASGESPGQIGDAQPGSGTDQSSGRHSLAAEARTSQSHSLAADARTRSTTRQTSVIAPDTAPGTASGTAPGTAPGTAVVTTFHGCGTVNHKGMINILLALALLVLL,glycan array binding signal (z-score),[14],0.327
same,glycan array binding signal (z-score),[9],1.64
